From US20230158259A1, “PRODUCTS OF MANUFACTURE AND METHODS FOR TREATING, AMELIORATING OR PREVENTING MICROBIAL INFECTIONS” (TOPELIA AUST LIMITED, priority 2020, published 2023)
For at least one compound, name, drawing or mass did not settle the structure.

Test system: COVID-19
Assay type: in vivo
Conditions: past-tense case reports

SMILES: CCC(CC)COC(=O)[C@H](C)N[P@](=O)(OC[C@H]1O[C@@](C#N)(c2ccc3c(N)ncnn23)[C@H](O)[C@@H]1O)Oc1ccccc1 [remdesivir]
- clinical response in words: had not responded
